Test results reported in PMC7926544.
Results are given in words; binding and its absence hold for the method and conditions named. Binding seen in cells or lysates may run through a third protein. Some entries that bind do so weakly or less than the wild type. Tags and fused reporters may be left off the sequences shown.

By UniProt entry, the sequences of proteins in these tests, tags left out.
UniProt P0DMV8: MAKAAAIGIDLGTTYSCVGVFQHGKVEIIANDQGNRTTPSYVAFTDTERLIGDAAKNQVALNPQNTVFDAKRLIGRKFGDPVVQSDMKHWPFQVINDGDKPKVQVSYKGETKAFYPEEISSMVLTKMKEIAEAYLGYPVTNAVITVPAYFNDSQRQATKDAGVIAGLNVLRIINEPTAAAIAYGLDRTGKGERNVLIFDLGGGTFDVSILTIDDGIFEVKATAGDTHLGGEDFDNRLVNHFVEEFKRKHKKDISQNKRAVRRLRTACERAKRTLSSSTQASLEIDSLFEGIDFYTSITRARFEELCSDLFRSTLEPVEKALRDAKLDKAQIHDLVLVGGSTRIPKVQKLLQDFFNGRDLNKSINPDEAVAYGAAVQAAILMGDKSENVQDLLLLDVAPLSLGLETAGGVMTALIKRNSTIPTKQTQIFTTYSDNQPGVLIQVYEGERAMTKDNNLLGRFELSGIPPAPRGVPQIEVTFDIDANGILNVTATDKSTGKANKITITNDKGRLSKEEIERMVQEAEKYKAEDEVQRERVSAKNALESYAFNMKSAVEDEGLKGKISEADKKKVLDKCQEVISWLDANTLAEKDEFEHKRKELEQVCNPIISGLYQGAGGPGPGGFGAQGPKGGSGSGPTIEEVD

Experiments:
GFP-STCH [1] = molecular target: T1, GFP-STCH (UniProt P48723); assay: co-IP; OKP cells transiently transfected with Myc-NKCC2 and GFP-STCH; lysate immunoprecipitated with anti-GFP, blot for NKCC2
T1 sequence: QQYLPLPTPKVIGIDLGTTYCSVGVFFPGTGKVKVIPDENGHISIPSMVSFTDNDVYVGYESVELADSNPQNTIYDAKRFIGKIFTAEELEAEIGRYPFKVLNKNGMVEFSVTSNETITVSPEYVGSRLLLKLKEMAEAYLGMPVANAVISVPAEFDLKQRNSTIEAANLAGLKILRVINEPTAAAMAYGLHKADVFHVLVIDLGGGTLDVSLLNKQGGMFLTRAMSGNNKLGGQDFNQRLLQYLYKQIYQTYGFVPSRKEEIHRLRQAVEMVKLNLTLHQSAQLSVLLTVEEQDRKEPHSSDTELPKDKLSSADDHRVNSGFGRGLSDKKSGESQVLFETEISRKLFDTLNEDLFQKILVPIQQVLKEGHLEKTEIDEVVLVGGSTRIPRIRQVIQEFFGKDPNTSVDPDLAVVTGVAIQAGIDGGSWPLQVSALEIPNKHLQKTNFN

[2] = molecular target: Myc-Hsp70 (stress-inducible heat shock protein 70) (UniProt P0DMV8); assay: co-IP; OKP cells transiently transfected with Myc-NKCC2 and Myc-Hsp70; lysate immunoprecipitated with anti-Hsp70, blot with anti-Myc
GFP-STCH [3] = molecular target: T1, GFP-STCH; assay: co-IP; HEK cells transiently transfected with Myc-NKCC2 and GFP-STCH; lysate immunoprecipitated with anti-GFP, protein G-agarose beads, blot with anti-Myc; lysis buffer 0.4 M NaCl, 0.5% Nonidet P-40, 10 mM Hepes pH 7.9

Measured: binding

B1: Myc-NKCC2 (mouse Na-K-2Cl co-transporter NKCC2) (protein, UniProt P55014 1-1095)
chain: MSVSIPSNSVPSSASRFQVHVINEGHGSAAAVGDSADPPHYEETSFGDEAQNRLRISFRPGNQECYDNFLQTGETAKTDTTFHAYDSHTNTYYLQTFGHNTMDAVPKIEYYRNTGSVSGPKVNRPSLLEIHEQLAKNVTVAPGSADRVANGDGMPGDEQAENKEEDMTGVVKFGWVKGVLVRCMLNIWGVMLFIRLSWIVGEAGIGLGVLIILLSTMVTSITGLSTSAIATNGFVRGGGAYYLISRSLGPEFGGSIGLIFAFANAVAVAMYVVGFAETVVDLLKESDSMMVDPTNDIRIIGSITVVILLGISVAGMEWEAKAQVILLVILLIAIANFFIGTVIPSNNEKKSRGFFNYQASIFAENFGPSFTKGEGFFSVFAIFFPAATGILAGANISGDLEDPQDAIPRGTMLAIFITTVAYIGVAICVAACVVRDATGSMNDTIVSGMNCNGSAACGLGYDFSRCQHEPCQYGLMNNFQVMSMVSGFGPLITAGIFSATLSSALASLVSAPKVFQALCKDNIFKGLQFFAKGYGKNNEPLRGYFLTFVIAMAFILIAELNVIAPIISNFFLASYALINFSCFHASYAKSPGWRPAYGIYNMWVSLFGAILCCAVMFVINWWAAVITYVIELFLYIYVTYKKPDVNWGSSTQALSYVSALDNALELTTVEDHVKNFRPQCIVLTGGPMTRPALLDITHAFTKNSGLCICCEVFVGPRKLCVKEMNSGMAKKQAWLIKNKIKAFYAAVAADCFRDGVRSLLQASGLGRMKPNTLVIGYKKNWRKAPLSELENYVGIIHDAFDFEIGVVIVRISQGFDISPVLQVQDELEKLEQERLALEAAIKDNECEEGKGGIRGLFKKAGKLNITKPAPKKDGNISSIQSMHVGEFNQKLVEASAQFKKKQGKGTIDVWWLFDDGGLTLLIPYILTLRKKWKDCKLRIYVGGKITRIEEEKISMASLLSKFRIKFADIHIIGDINIKPNKESWKVFEEMIEPYRLHESHKDLTTAEKLKRESPWKITDAELEAVKEKSYRQVRLNELLQEHSRAANLIVLSLPVARKGSISDLLYMAWLEILTKNLPPVLLVRGNHKNVLTFYS
binds: all assays above
